Assay results taken from PubChem BioAssay AID540276 (National Center for Advancing Translational Sciences (NCATS), 2011).
The whole screen tested about 300,000 compounds, of which about 5,400 (1.8%) were called active. Inconclusive results, whose numbers are uncertain, are shown with a selection of clear calls. Calls come from the whole dose curve; tested in HEK293 cells. Where the call is inconclusive, the potency comes from a doubtful curve fit. Residues, ends and D or L forms follow the SMILES beside them. *: point of attachment. Boc = CC(C)(C)OC(=O)*
% is set by controls: 0 for no effect and ±100 for the full control effect; potency is the fitted concentration of half-maximal effect.

Test: qHTS for inhibitors of binding or entry into cells for Marburg Virus
Settings: Marburg virus pseudotyped entry inhibition, cell reporter; activity change, negative = inhibition: at 37.8 µM (top of the series) unless noted
For `CCOc1ccc(Nc2nc(-c3cccnc3)cs2)cc1`, the “activity change, negative = inhibition” value was inactive: 15.4%.
In the case of `CC(NC(=S)NCCCN1CCOCC1)C12CC3CC(CC(C3)C1)C2` (stereo unspecified), the Potency is reported as inconclusive: 11.2 µM [inhibitor, partial curve, poor fit].
With `CCc1cc2c(nc1CC)CCN(CCC(C)=NOC[C@@H](C)[C@H](OCc1ccccc1)C(C)C)C2` the “activity change, negative = inhibition” value was inactive: -16.5% [at 14.2 µM].
For `COc1ccc(-c2nnc(SC(C)C(=O)Nc3ccc4c(c3)OCCO4)o2)cc1` (stereo unspecified), the “activity change, negative = inhibition” value was inactive: 24.5%.
In the case of `O=C(c1cnn(-c2ccccc2)c1)c1ccccc1O`, the Potency is reported as inconclusive: 15.8 µM [inhibitor, partial curve, poor fit].
With `Cc1ccc(-c2cc(-c3ccccc3Cl)c(C#N)c(N)n2)o1` the “activity change, negative = inhibition” value was inactive: -3.34% [at 46.1 µM].
For `COc1cccc(CNC(=O)CNC(=S)N(Cc2ccccc2)Cc2ccccc2F)c1`, the Potency was inconclusive: 14.1 µM [inhibitor, single point].
With `Clc1ccccc1OCc1nnc(-c2ccccc2Br)o1` the “activity change, negative = inhibition” value was inactive: 6.25%.
In the case of `Cc1ccc(C(c2nnnn2C2CCCCC2)N(C)C2CCCCC2)cc1` (stereo unspecified), the Potency is reported as inconclusive: 29.1 µM [inhibitor, single point].
With `Clc1ccc2nc3ccccn3c2c1` the “activity change, negative = inhibition” value was inactive: -3%.
For `COc1ccccc1-c1nnc(NC(C)=O)s1`, the “activity change, negative = inhibition” value was inactive: -9.25%.
With `COc1ccc(-c2nc3cc(NC(=O)COc4ccccc4C)ccc3o2)cc1` the Potency was inconclusive: 11.2 µM [activator, partial curve, poor fit].
In the case of `CCC(C)C(NC(=O)C(C)NC(=O)CNC(=O)OC(C)(C)C)C(N)=O` (stereo not drawn) (Boc-Gly-Ala-Ile-NH2; configuration not given here), the Potency is reported as inconclusive: 15.8 µM [inhibitor, single point].
In the case of `COCCN(Cc1ccco1)C(=O)C1CCCN(c2ncnc3c2nc2n3CCCCC2)C1` (stereo unspecified), the Potency is reported as inconclusive: 0.316 µM [inhibitor, full curve, poor fit].
For `CCOc1cc(-c2nc(-c3ccccc3OC)no2)cc(OCC)c1OCC`, the Potency was inconclusive: 20 µM [inhibitor, partial curve, poor fit].
In the case of `CC(/C=C/c1ccc2c(c1)OCO2)=N/NC(=O)c1cccnc1`, the “activity change, negative = inhibition” value is reported as inactive: -4.18% [at 46.1 µM].
With `COc1ccc(-c2cnn3c(N)c(S(=O)(=O)c4ccccc4)cnc23)cc1` the Potency was inconclusive: 14.6 µM [activator, partial curve, poor fit].
For `COc1ccc(CCNC(=O)CN(c2ccccc2)S(=O)(=O)N(C)C)cc1OC`, the Potency was inconclusive: 1.12 µM [inhibitor, partial curve, poor fit].
For `Cc1ccc(Nc2nc3nonc3[nH]c2=O)cc1`, the “activity change, negative = inhibition” value was inactive: -12.7%.
For `CC(C)OCC(O)CS(=O)Cc1ccccc1` (stereo unspecified), the “activity change, negative = inhibition” value was inactive: -1.79%.
For `CCOC(=O)C1CCCN(C(=O)c2ccccc2Oc2ccccc2)C1` (stereo unspecified), the Potency was inconclusive: 0.1 µM [inhibitor, full curve, poor fit].
For `N#Cc1cc(-c2ccccc2)nnc1Oc1ccccc1Cl`, the Potency was inconclusive: 22.4 µM [inhibitor, single point].
In the case of `CSc1ccc(C2NN=C(c3ccccc3)S2)cc1` (stereo unspecified), the Potency is reported as active: 2.82 µM.
With `COc1ccc(NC(=O)CSc2nc3c(c(=O)[nH]2)CCC3)cc1OC` the Potency was inconclusive: 0.447 µM [inhibitor, full curve, poor fit].
In the case of `Cc1nn(CC(=O)N(C)Cc2ccc(F)cc2)c(C)c1[N+](=O)[O-]`, the Potency is reported as inconclusive: 5.01 µM [activator, full curve].
With `CCOC(=O)c1ccc(CNCc2ccc(Br)cc2)cc1` the Potency was inconclusive: 3.98 µM [activator, single point].
In the case of `CC[n+]1c(/C=C/Nc2ccccc2)oc2ccc(OC)cc21`, the Potency is reported as inconclusive: 11.2 µM [inhibitor, partial curve, poor fit].
With `Cc1ccc(NC(=O)Nc2ccccc2C(=O)NCc2ccccc2)cc1` the Potency was inconclusive: 35.5 µM [activator, single point].
For `CCOc1ccnc(OCC)c1Br`, the Potency was inconclusive: 5.62 µM [activator, single point].
With `CCc1ccccc1NC(=O)c1ccc2c(c1)CCCN2S(C)(=O)=O` the “activity change, negative = inhibition” value was inactive: 1.91% [at 46.1 µM].
For `C/C(CC(=O)NC1CCCC1)=N\NC(=O)c1ccc([N+](=O)[O-])c(Cl)c1`, the Potency was inconclusive: 0.447 µM [inhibitor, partial curve, poor fit].
For `COc1ccc(Cl)cc1N1CCN(CCNC(=O)Nc2ccccc2C)CC1`, the Potency was inconclusive: 28.2 µM [inhibitor, partial curve, poor fit].
In the case of `CC(C)(C)NCc1cc(Cl)ccc1OCc1cccs1`, the Potency is reported as inconclusive: 10 µM [inhibitor, partial curve, poor fit].
With `CCOc1cccc2sc(N(CCN(C)C)C(=O)c3ccc4c(c3)OCCO4)nc12` the “activity change, negative = inhibition” value was inactive: -7.07%.
In the case of `Cc1onc(-c2ccc(Cl)cc2)c1-c1ccnn1S(=O)(=O)c1ccc(Cl)cc1`, the Potency is reported as inconclusive: 11.2 µM [inhibitor, partial curve, poor fit].
For `C/C(=N\NC(=O)c1ccc(N2CCCC2=O)cc1)c1ccccc1`, the “activity change, negative = inhibition” value was inactive: 18% [at 46.1 µM].
For `COC(=O)C1=C(CSCc2ccco2)NC(=O)NC1c1cc(C)ccc1C` (stereo unspecified), the Potency was inconclusive: 35.5 µM [inhibitor, single point].
With `COc1ccc2c(C)c(CC(=O)NCc3ccccc3Cl)c(=O)oc2c1OC` the Potency was inconclusive: 5.62 µM [activator, single point].
In the case of `CCc1ccc(-c2cn3nc(CC)sc3n2)cc1`, the Potency is reported as inconclusive: 31.6 µM [inhibitor, single point].
In the case of `C/C(=N/N=C(/N)SCc1ccccc1)C(C)(C)C`, the “activity change, negative = inhibition” value is reported as inactive: 1.55%.
For `CN(C)c1ccc(-c2nnc(SCC3CCCO3)n2C)cc1` (stereo unspecified), the Potency was inconclusive: 1.78 µM [activator, partial curve, poor fit].
For `O=S(=O)(/N=C(/NS(=O)(=O)c1ccccc1)c1ccccc1)c1ccccc1`, the “activity change, negative = inhibition” value was inactive: -1.31% [at 46.1 µM].
For `COc1ccc(CNC(=O)C(OC(=O)c2ccco2)c2ccccc2F)cc1` (stereo unspecified), the “activity change, negative = inhibition” value was inactive: -10.9% [at 46.1 µM].
With `O=C(C1CCCN(Cc2cc(Br)ccc2O)C1)N1CCCCC1` (stereo unspecified) the “activity change, negative = inhibition” value was inactive: 0.524%.
In the case of `CCOC(=O)N1CCN(C(=O)c2oc3ccc(S(=O)(=O)N4CCCCC4)cc3c2C)CC1`, the Potency is reported as inconclusive: 8.2 µM [inhibitor, partial curve, poor fit].
For `Cc1cccc(NC(=O)c2nc(-c3ccccc3)n(-c3ccccc3)n2)c1C`, the Potency was inconclusive: 35.5 µM [inhibitor, single point].
